# Experimental data taken from PMC13568704.
# Chains of the proteins cited; added tags and fusions are not shown. Lines headed by an entry give the natural chain unless they say otherwise; changes in a name come on top. Residues count along the entry.
# UniProt Q93878: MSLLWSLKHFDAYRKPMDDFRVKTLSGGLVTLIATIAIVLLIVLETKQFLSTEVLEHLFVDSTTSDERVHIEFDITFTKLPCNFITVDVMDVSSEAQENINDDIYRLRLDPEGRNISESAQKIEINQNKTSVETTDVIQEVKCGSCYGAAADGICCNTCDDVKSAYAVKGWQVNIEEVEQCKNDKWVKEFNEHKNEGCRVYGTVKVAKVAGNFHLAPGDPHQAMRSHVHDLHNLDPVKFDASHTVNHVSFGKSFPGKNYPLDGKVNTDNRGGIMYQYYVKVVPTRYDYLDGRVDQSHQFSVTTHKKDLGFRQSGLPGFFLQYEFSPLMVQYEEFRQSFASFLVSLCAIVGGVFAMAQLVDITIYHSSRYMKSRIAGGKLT
# UniProt G5EEW1: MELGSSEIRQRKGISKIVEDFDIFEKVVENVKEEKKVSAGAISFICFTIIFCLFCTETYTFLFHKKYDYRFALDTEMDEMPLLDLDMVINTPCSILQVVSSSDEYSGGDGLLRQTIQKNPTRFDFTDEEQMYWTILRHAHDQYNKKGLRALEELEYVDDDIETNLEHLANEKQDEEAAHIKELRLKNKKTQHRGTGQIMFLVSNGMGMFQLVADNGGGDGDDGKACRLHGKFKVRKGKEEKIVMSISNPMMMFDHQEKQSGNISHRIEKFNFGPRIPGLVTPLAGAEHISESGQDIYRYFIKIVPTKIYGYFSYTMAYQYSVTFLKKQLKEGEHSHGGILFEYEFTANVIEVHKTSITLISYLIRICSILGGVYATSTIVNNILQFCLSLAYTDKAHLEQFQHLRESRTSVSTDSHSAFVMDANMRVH
# UniProt P20163, residues 18-657: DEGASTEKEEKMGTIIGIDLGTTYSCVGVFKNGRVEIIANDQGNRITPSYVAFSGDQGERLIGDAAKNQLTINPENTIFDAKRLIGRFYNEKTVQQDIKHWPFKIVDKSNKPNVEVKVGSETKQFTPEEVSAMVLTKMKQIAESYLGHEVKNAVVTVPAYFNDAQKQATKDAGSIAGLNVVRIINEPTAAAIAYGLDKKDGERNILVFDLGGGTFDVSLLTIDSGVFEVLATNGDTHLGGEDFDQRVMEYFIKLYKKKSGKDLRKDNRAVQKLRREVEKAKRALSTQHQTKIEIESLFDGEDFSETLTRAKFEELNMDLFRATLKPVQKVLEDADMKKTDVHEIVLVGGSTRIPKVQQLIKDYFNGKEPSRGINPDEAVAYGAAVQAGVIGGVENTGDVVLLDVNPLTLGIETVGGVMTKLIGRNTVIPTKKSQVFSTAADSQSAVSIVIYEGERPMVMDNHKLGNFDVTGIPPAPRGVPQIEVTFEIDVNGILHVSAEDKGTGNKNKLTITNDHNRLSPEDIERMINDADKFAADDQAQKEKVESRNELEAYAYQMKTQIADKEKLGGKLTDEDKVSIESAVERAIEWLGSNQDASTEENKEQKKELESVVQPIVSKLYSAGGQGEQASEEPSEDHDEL
# Results are given in words; binding and its absence hold for the method and conditions named. In cells and extracts the contact can be indirect. Here binding means that the protein was enriched with, or labelled near, the bait; the list need not be complete.
# Key:
# [1] = target: GFP::ERGI-3 (endogenous knock-in, allele xdKi81) (C. elegans) (UniProt Q93878); assay: affinity purification with mass spectrometry; lysates of GFP knock-in worms (xdKi80, xdKi81; GFP-only worms as control) in 50 mM Tris-Cl pH 8.0, 150 mM NaCl, 0.5% sodium deoxycholate, 1% Triton X-100; anti-GFP polyclonal antibody overnight, protein A agarose 4 h at 4°C; in-gel digestion, TripleTOF 5600
# [2] = target: GFP::ERGI-2 (endogenous knock-in, allele xdKi80) (C. elegans) (UniProt G5EEW1); assay: as above
substance,measurement,setting,value
"HSP-4/BiP (endogenous, C. elegans) (from UniProt P20163 18-657)",binding,[1],binds
same,binding,[2],binds
